The target of this assay is human CD71 (transferrin receptor 1) extracellular domain, recombinant, biotinylated (human) (UniProt P02786). Nature of the assay: hit of apical domain panning; heading of the sequence table.

Amino acid sequences for entries named in this document (tags omitted). A change or cut given only in a name is not applied to a line headed by its entry. Chains listed by the source or under a name are the forms on record and can include a tag or linker.
human CD71 (transferrin receptor 1) extracellular domain, recombinant, biotinylated (P02786, form named): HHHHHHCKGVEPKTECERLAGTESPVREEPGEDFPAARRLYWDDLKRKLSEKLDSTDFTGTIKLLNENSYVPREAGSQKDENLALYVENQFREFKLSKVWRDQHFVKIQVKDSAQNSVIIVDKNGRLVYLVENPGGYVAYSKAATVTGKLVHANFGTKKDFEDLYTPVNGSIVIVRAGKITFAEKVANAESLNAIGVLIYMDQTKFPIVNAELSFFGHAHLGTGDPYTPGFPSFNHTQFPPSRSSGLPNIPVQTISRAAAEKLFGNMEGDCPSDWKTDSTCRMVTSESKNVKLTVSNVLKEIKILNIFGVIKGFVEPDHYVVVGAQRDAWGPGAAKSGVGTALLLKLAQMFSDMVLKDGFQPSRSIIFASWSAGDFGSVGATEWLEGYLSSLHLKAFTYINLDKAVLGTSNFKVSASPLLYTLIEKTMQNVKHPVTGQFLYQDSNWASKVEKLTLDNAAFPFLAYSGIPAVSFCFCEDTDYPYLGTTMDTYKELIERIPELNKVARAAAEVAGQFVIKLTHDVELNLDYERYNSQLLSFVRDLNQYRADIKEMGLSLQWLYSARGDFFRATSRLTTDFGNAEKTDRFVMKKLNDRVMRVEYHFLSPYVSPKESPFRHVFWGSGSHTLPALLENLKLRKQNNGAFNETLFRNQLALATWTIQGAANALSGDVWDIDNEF

Changes are numbered by the printed parent chain. These are yes or no findings as the source states them, for the method shown. Some results given as binding are weak or reduced against the parent protein; the word gives no strength.

B1: FN3 domain of SEQ ID NO: 43 (designed binder)
chain: MLPAPKNLVVSRVTEDSARLSWTAPDAAFDSFMIVYYEYTRFGEAIVLTVPGSERSYDLTGLKPGTEYTVPIDGVKGGGRSSPLSAIFTT
As to B1, the binding entry is given as “binds”.

B2: FN3 domain of SEQ ID NO: 47 (designed binder)
chain: B1 chain with M33G, Y37L, Y39M, T40M, R41V, F42T, T69D, D73L, G79T, S82V
For B2, the binding result is “binds”.

B3: FN3 domain of SEQ ID NO: 61 (designed binder)
chain: MLPAPKNLVVSRVTEDSARLSWTAPDAAFDSFQIVYSELWIKGEAIVLTVPGSERSYDLTGLKPGTEYQVPIPGVKGGRNSFPLSAIFTT
For the molecule B3, the binding result is on record as “binds”.

B4: FN3 domain of SEQ ID NO: 50 (designed binder)
chain: MSLPAPKNLVVSRVTEDSARLSWTAPDAAFDSFTIHYREFQLSGEAIVLTVPGSERSYDLTGLKPGTEYDVPIEGVKGGPGSRPLSAIFTT
Consider B4, for which the binding result was “binds”.

B5: FN3 domain of SEQ ID NO: 56 (designed binder)
chain: MLPAPKNLVVSRVTEDSARLSWTAPDAAFDSFSIGYVELVLLGEAIVLTVPGSERSYDLTGLKPGTEYDVLIPGVKGGSLSRPLSAIFTT
On to B5, for which the binding result is listed as “binds”.

B6: FN3 domain of SEQ ID NO: 54 (designed binder)
chain: MLPAPKNLVVSRVTEDSARLSWTAPDAAFDSFAIAYGEHIVIGEAIVLTVPGSERSYDLTGLKPGTEYMVPIAGVKGGPISLPLSAIFTT
In the case of B6, the binding result is on record as “binds”.

B7: FN3 domain of SEQ ID NO: 52 (designed binder)
chain: MLPAPKNLVVSRVTEDSARLSWTAPDAAFDSFEIDYDELAIYGEAIVLTVPGSERSYDLTGLKPGTEYGVRIPGVKGGMPSLPLSAIVTT
With B7, the binding result is given as “binds”.

B8: FN3 domain of SEQ ID NO: 60 (designed binder)
chain: B7 chain
On to B8, for which the binding entry is on record as “binds”.

B9: FN3 domain of SEQ ID NO: 42 (designed binder)
chain: MLPAPKNLVVSRVTEDSARLSWTAPDAAFDSFLIPYAETSPSGEAIVLTVPGSERSYDLTGLKPGTEYSVLIHGVKGGDYSEPLSAIFTT
On to B9, for which the binding result was “binds”.

B10: FN3 domain of SEQ ID NO: 64 (designed binder)
chain: B9 chain with L33Y, P35V, T39P, S40I, S42N, D79R, Y80N, E82D
B10: the binding result was “binds”.

B11: FN3 domain of SEQ ID NO: 57 (designed binder)
chain: B9 chain with L33A, T39L, P41R, S42N, S69T, D79C, Y80L, E82D
Consider B11, for which the binding entry is recorded as “binds”.

B12: FN3 domain of SEQ ID NO: 46 (designed binder)
chain: B9 chain with L33I, T39V, S40R, S42D, D79K, Y80L, E82L
For B12, the binding result is reported as “binds”.

B13: FN3 domain of SEQ ID NO: 44 (designed binder)
chain: B9 chain with L33F, T39P, S42T, D79H, Y80L, E82D, F88V
B13: the binding result is recorded as “binds”.

B14: FN3 domain of SEQ ID NO: 55 (designed binder)
chain: B9 chain with L33F, T39P, S42T, D79H, Y80L, E82D
For B14, the binding result is given as “binds”.

B15: FN3 domain of SEQ ID NO: 65 (designed binder)
chain: B9 chain with E15K, L33P, P35A, T39P, S40R, S42D, D79L, Y80L, E82S
B15: the binding result is given as “binds”.

B16: FN3 domain of SEQ ID NO: 37 (designed binder)
chain: MLPAPKNLVVSRVTEDSARLSWTTPDAAFDSFPIYYWEVTITGEAIYLSVPGSERSYDLTGLKPGTEYPVDIPGVKGGAASPPLSAIFTT
Regarding B16, the binding result is “binds”.

B17: FN3 domain of SEQ ID NO: 63 (designed binder)
chain: MLPAPKNLVVSRVTEDSARLSWTAPDAAFDSFCISYYERMGRGEAIVLTVPGSERSYDLTGLKPGTEYMVYIFGVKGGLNSLPLSAIFTT
In the case of B17, the binding result was “binds”.

B18: FN3 domain of SEQ ID NO: 39 (designed binder)
chain: MLPAPKNLVVSRVTEDSARLSWTAPDAAFDSFPIPYTEPPDPGEAIVLTVPGSERSYDLTGLKPGTEYLVTILGVKGGSMSVPLSAIFTT
In the case of B18, the binding entry is reported as “binds”.

B19: FN3 domain of SEQ ID NO: 59 (designed binder)
chain: MLPAPKNLVVSRVTEDSARLSWTAPDAAFDSFVYNEVHWIGEAIVLTVPGSERSYDLTGLKPGTEYFVGIYGVKGGHWSKPLSAIFTT
With B19, the binding entry is given as “binds”.

B20: FN3 domain of SEQ ID NO: 41 (designed binder)
chain: MLPAPKNLVVSRVTEDSARLSWQGVARAFDSFLITYREQIFAGEVIVLTVPGSERSYDLTGLKPGTEYPVWIQGVKGGHLSDPLSAIVTT
For B20, the binding result was “binds”.

B21: FN3 domain of SEQ ID NO: 45 (designed binder)
chain: B20 chain with R12E, H79S, L80P, D82A, I87E, V88F
For B21, the binding entry is on record as “binds”.

B22: FN3 domain of SEQ ID NO: 53 (designed binder)
chain: B20 chain with K6E, R12E, H79S, L80P, D82A, I87E, V88S
Turning to B22, the binding entry is “binds”.

B23: FN3 domain of SEQ ID NO: 51 (designed binder)
chain: B20 chain with R12E, R55C, H79S, L80P, D82A, I87E, V88F
With B23, the binding entry is reported as “binds”.

B24: FN3 domain of SEQ ID NO: 40 (designed binder)
chain: MLPAPKNLVVSRVTEDSARLSWTAPDAAFDSFTIDYWENRCPGEAIVLTVPGSERSYDLTGLKPGTEYCVWISGVKGGYSSWPLSAIFTT
Take B24: the binding entry is listed as “binds”.

B25: FN3 domain of SEQ ID NO: 62 (designed binder)
chain: B24 chain with T33K, D35R, W37T, N39T, C41S, P42I, W71P, S73G, Y79D, F88S
Regarding B25, the binding result is reported as “binds”.

B26: FN3 domain of SEQ ID NO: 35 (designed binder)
chain: MLPAPKNLVVSRVTEDSARLSWTAPDAAFDSFPISYIESIADGEAIVLTVPGSERSYDLTGLKPGTEYWVAIVGVKGGPFSWSLSAIVTT
Regarding B26, the binding result was “binds”.

B27: FN3 domain of SEQ ID NO: 38 (designed binder)
chain: MLPAPKNLVVSRVTEDSARLSWTAPDAAFDSFPILYLEHTVRSEAIVLTVPGSERSYDLTDLKPGTEYCVPIDGVKGGLRSRPLSAIFTT
For B27, the binding entry was “binds”.

B28: FN3 domain of SEQ ID NO: 48 (designed binder)
chain: MLPAPKNLVVSRVTEDSARLSWTAPDAAFDSFLIYYEEGYLEYYYSGEAIVLTVPGSERSYDLTGLKPGTEYYVGIVGVKGGGLSGPLSAISTT
For the molecule B28, the binding entry is “binds”.
